Here are results for 55 compounds from PubChem BioAssay AID1458 (National Center for Advancing Translational Sciences (NCATS), 2008).

In all, about 210,000 compounds went through this assay and about 5,900 (2.8%) were called active. About 5% were inconclusive and are not listed. Calls come from the whole dose curve; as a rule, active = well fitted activation curve with a large enough effect; inconclusive = small, poorly fitted or top-dose-only effect; inactive = no such curve, though single readings can be large or run the other way. The entries are a selection whose mix differs from that of the whole data set. Entries without a call were filed so in the source.
Potency is the fitted concentration of half-maximal effect.

The assay in a line: qHTS Assay for Enhancers of SMN2 Splice Variant Expression. For activity change, positive = activation: % of control where 0% means no effect. Note: nearly all actives have a fitted effect of over 55% in size. To be noted: HEK293 SMN2-luciferase splicing reporter, luminescence, 30-36 h; activity change, positive = activation: at 46.1 µM (top of the series) unless noted. The text has this:
NIH Chemical Genomics Center [NCGC] NIH Molecular Libraries Probe Production centers Network [MLPCN] MLPCN Grant: R03 MH084179-01 Assay Submitter (PI): Elliot Androphy NCGC Assay Overview: Spinal muscular atrophy (SMA) is caused by insufficient levels of the survival motor neuron protein SMN. The SMN locus on chromosome 5q13 contains two inverted copies of SMN called SMN1 and SMN2 which are 99% identical at the amino acid level. SMN1 is a fully functional protein and SMN2 skips exon 7 90% of the time. Skipping of exon 7 produces non-functional protein product. 10% of the SMN2 protein includes exon 7 and is fully functional. In the SMA disease state, mutations in the SMN1 locus are the cause of the disease state. Because only 10% of SMN2 is of the fully functional form, it is not sufficient to overcome the deficiency produced by the loss of the SMN1 product. A therapy that either increase the amount of SMN2 product made or to increase the inclusion of exon 7 has been proposed for the treatment of SMA. We have designed an assay to identify small molecules that can increase the amount of functional SMN2 product by appending a luciferase reporter gene after the native SMN2 gene, such that inclusion of exon 7 in the expressed product places the luciferase sequence in frame, thus generating functional luciferase enzyme.
NCGC Assay Protocol Summary: This screen utilizes a luciferase reporter gene assay, combining the promoter and splicing based cassettes in tandem with the major portion of the native SMN2 cDNA, and then transfected into HEK293 cells. Compounds that increase luciferase signal presumably enhance expression of the functional SMN2 splice variant. Passaging media contained DMEM w/ glutamax (+phenol red) 10% FCS, 1x pen/strep, 200 ug/ml hygro, 1x sodium pyruvate. Assay media contained DMEM w/ glutamax (-phenol red) 10% FCS, 1x pen strep, 1x pyruvate Sequence, Parameter, Value, Description (1) Cells, […], 2000 cells/well, 1536 TC treated White solid bottom plate (2) Time, 10-12 hours, 37C 5% CO2 (3) Compound, 23 nl, MLSMR Library (4) Control Compound, 23 nL, Sodium butyrate st 4.5mM (final) conc (5) Time, 30-36 hours, 37C 5% CO2 (6) Reagent, 3 ul, One Glo (TM) from Promega (7) Time, 5-15 minutes, Room temp (8) Detector, Viewlux: luminescent read, 60 second integration, high speed 2x binning Keywords: Spinal muscular atrophy, SMA, SMN2, high throughput screening, MLSMR, MLPCN, NIH Roadmap, qHTS and NCGC
For orientation: In qHTS, concentration-response curves come from the screen itself.
For the compound `CCN(CC)c1ccc(/C=N/NC(=O)c2ccc(Br)o2)cc1`, the Potency was active: 11.2 µM.
For `CCc1ccc(Oc2cc(C)nc(N)n2)cc1`, the Potency is active: 10 µM.
`COC(=O)c1cccc(NC(=O)CCc2ccccc2)c1`: the activity change, positive = activation was found to be 51.1%.
Same read-out and setting: to `CCOC(=O)C1CCN(C(=O)c2oc3ccc(S(=O)(=O)N4CC(C)CC(C)C4)cc3c2C)CC1` (stereo not given) belongs inactive: -30.1%.
Consider `N/C(=N\OC(=O)CCC1CCCC1)c1ccc([N+](=O)[O-])cc1`, for which the activity change, positive = activation was -44.7%.
For `CCOC(=O)CSC1=NC(=O)/C(=C\c2ccc(Cl)cc2)S1`, the activity change, positive = activation was -72.6%.
As to `Cc1cnc(NC(=O)c2sc3ccccc3c2Cl)s1`, the Potency is active: 1 µM.
On to `O=C(Oc1c(CN2CCOCC2)cc(Cl)c2cccnc12)c1ccccc1`, for which the “activity change, positive = activation” value was inactive: -86.2%.
For `COc1ccc(OC)c(C(O)c2coc3ccc(O)c(CN(C)C)c23)c1` (stereo not given), the activity change, positive = activation worked out at 36.6%.
As to `Cc1ccc(-c2nnc(-c3ccc(Br)cc3)o2)o1`, the Potency is active: 12.6 µM.
In the case of `Cc1ccc(S(=O)(=O)n2nc(-c3ccco3)nc2SCc2ccccc2)cc1`, the Potency was active: 15.8 µM.
Turning to `CCCCC(=O)Nc1ccc(NC(=O)c2ccccc2OC)cn1`, the activity change, positive = activation was found to be 35.9%.
For the compound `Cc1ccc(S(=O)(=O)Nc2ccc(Br)cc2C(NCC(=O)O)c2ccccc2)cc1` (stereo not given), the activity change, positive = activation came to 65%.
For `COc1ccc(CN2COc3ccc4c(-c5ccccc5)cc(=O)oc4c3C2)cc1`, the activity change, positive = activation was determined as 45.9%.
On the same count and under the same terms, as for `O=C1CCN(C(=O)c2ccccc2)C2CCCCC12` (stereo not given), the figure is 32.3%; as for `O=C(c1ccc(Br)cc1)c1cc([N+](=O)[O-])ccc1N1CCCCC1`, -33.9%.
Turning to `CCOC(=O)C1CCCN(C(=O)c2cc(-c3ccccc3)on2)C1` (stereo not given), the Potency is active: 22.4 µM.
Consider `Cc1cc(C(=O)CCl)c(C)n1-c1cccc(S(=O)(=O)N2CCOCC2)c1`, for which the “activity change, positive = activation” value was inactive: -43.6%.
Turning to `CCOC(=O)C1CCCN(CCC(=O)Nc2ccc3c(c2)CCC3)C1` (stereo not given), the activity change, positive = activation amounted to 34%.
For `COc1ccc(C(=O)Nc2nc3ccc(S(C)(=O)=O)cc3s2)cc1OC`, the activity change, positive = activation was 31.7%.
Consider `O=C(NNC(=O)C1CC1c1ccccc1)c1cccc([N+](=O)[O-])c1` (stereo not given), for which the activity change, positive = activation was determined as 12.8%.
For the compound `Cc1cnc(NC(=O)c2cncc(Br)c2)s1`, the activity change, positive = activation amounted to 283%.
Still for that read-out and setting: as for `CO/N=C/C(C#N)=C/c1ccc(OC)cc1`, the figure is 58.9%; as for `Cc1ccc(SCCC(=O)OCC(=O)NCC2CCCCC2)cc1`, 32.1%.
Turning to `Cc1ccc(S(=O)(=O)N[C@@H](Cc2ccccc2)C(=O)CCl)cc1`, the Potency result was “inactive”.
Consider `COc1cccc(NC(=O)N2CCN(c3nnnn3-c3ccccc3)CC2)c1`, for which the “activity change, positive = activation” value is inactive: -28.2%.
In the case of `Cc1ccc(C(=O)Oc2ccc3c(c2)ncn3C)cc1`, the activity change, positive = activation turned out to be 36.7%.
`COc1cc(C(c2c(C)[nH][nH]c2=O)c2c(C)[nH][nH]c2=O)ccc1OS(=O)(=O)c1ccccc1`: the activity change, positive = activation was 30.6%.
For `CCC(=O)Nc1nnc(Cc2ccccc2)s1`, the activity change, positive = activation was found to be 86.7%.
On the same count and under the same terms, to `O=S(=O)(Nc1nccs1)c1cc(Cl)ccc1Cl` belongs 39.8%; to `Cc1ccc2c(c1)[C@@H]1CN(C)CC[C@@H]1N2S(=O)(=O)c1ccc([N+](=O)[O-])cc1`, -31.8%; to `Cc1cc(-n2c(C)cc(C(=O)CSc3nnnn3-c3ccccc3)c2C)no1`, inactive: -34.3%.
For the compound `CC(=O)CSc1nc2cc3c(cc2cc1C#N)OCCO3`, the activity change, positive = activation is 22.9%.
Same read-out and setting: to `Cn1c(=O)c2c(nc(SCC(=O)NCC3CCCO3)n2C)n(C)c1=O` (stereo not given) belongs 27.4%; to `O=C(Nc1ccc(N2CCCCC2)c(Cl)c1)c1ccc(N2CCOCC2)c([N+](=O)[O-])c1`, inactive: -31.4%.
Turning to `O=C(O)c1ccc(Cl)cc1Cl`, the “activity change, positive = activation” value is inactive: -2.25%.
Same read-out and setting: as for `Cn1c(CN2CCOCC2)nc2cc(NC(=O)c3ccc(F)cc3)ccc21`, the figure is -72.1%; as for `O=C(Cc1cccs1)N/N=C\c1ccc(O)cc1`, 47.6%.
Regarding `Cc1ccc2nc(-c3ccc(NC(=O)CN4C(=O)c5ccccc5C4=O)cc3)sc2c1`, the Potency is active: 2.82 µM.
On to `CCCSc1cc(=O)n(-c2ccc(F)cc2)nc1C(=O)OCC`, for which the activity change, positive = activation turned out to be 36.8%.
Regarding `COc1ccc(C(=O)N2CCOCC2)cc1Br`, the activity change, positive = activation is 33.5%.
As to `CCOC(=O)CNC(=S)N(Cc1ccccc1F)C1CCCCC1`, the activity change, positive = activation is -1.4%.
Consider `Cc1ccc2nc(NC(=S)NC(=O)c3ccco3)sc2c1`, for which the Potency was active: 11.2 µM.
As for `O=c1oc2ccccc2cc1-c1csc(Cc2nc(-c3ccc(Cl)cc3)cs2)n1`, the “activity change, positive = activation” value is inactive: -76%.
Still for that read-out and setting: to `COc1ccc(NC(=O)CSc2nc(-c3ccc(OC)c(OC)c3)[nH]c2-c2ccc(C)cc2)cc1` belongs 36.7%; to `Cc1nc(CN2CCN(C(=O)NC3(c4ccccc4)CC3)CC2)cs1`, 41.5%.
Consider `CCNc1nc(NC(C)CC)nc(Oc2ccc(OCC)nn2)n1` (stereo not given), for which the Potency is active: 5.62 µM.
Take `CCOCCc1nnc(N)s1`: the activity change, positive = activation came to 42.2%.
As to `CCC(C)NC(=O)CCC(=O)NNc1nc2ccccc2c2nc(C)nn12` (stereo not given), the activity change, positive = activation was found to be 42.4%.
For `CN(CCC#N)C(=O)COC(=O)c1c2c(nc3ccccc13)/C(=C/c1ccco1)CC2`, the Potency was active: 22.4 µM.
On to `C/C(=N/Nc1cc(-c2ccccc2)nc(-c2ccccc2)n1)c1ccc(O)cc1`, for which the activity change, positive = activation was -101%.
With `COc1cc(C(=O)Nc2ccc3c(c2)OCCO3)ccc1OC(F)F`, the Potency is active: 14.1 µM.
For the compound `CS(=O)(=O)N1CCN(c2ccccc2NC(=O)c2cccs2)CC1`, the activity change, positive = activation came out at 40.3%.
With `Cc1ccc(S(=O)(=O)NCCC(c2ccccc2)c2ccco2)cc1` (stereo not given), the activity change, positive = activation was -57.1%.
With `COc1ccc(/C=C/C2=CCN(Cc3ccc(OC)cc3)CC2)cc1`, the “activity change, positive = activation” value is inactive: -50.8%.
